Values quoted from earlier work, collected in patent US20150284399A1, “PROCESSES FOR THE PREPARATION OF S1P1 RECEPTOR MODULATORS AND CRYSTALLINE FORMS THEREOF” (Arena Pharmaceuticals, Inc., priority 2010, published 2015).
Read-outs that look alike come from different tables or passages of the source. For at least one compound, name, drawing or mass did not settle the structure.

How the values were obtained:
[1] = tested on: mouse models for graft coronary artery disease and graft-versus-host disease (GVHD); details: cited from earlier work
[2] = tested on: mouse model for metastatic hepatocellular carcinoma; details: cited from earlier work
[3] = tested on: rat small bowel allograft model; details: combination with cyclosporin A; cited from earlier work
[4] = tested on: mouse models for type I diabetes; details: cited from earlier work
[5] = tested on: lymphocytic choriomeningitis virus (LCMV), Armstrong or clone 13 strain; details: mice infected with Armstrong or clone 13 strain of LCMV; cited from earlier work
[6] = tested on: experimental autoimmune encephalomyelitis (EAE) in mice; details: cited from earlier work
[7] = tested on: rat cardiac allograft model; details: cited from earlier work
[8] = tested on: experimental autoimmune encephalomyelitis (EAE) in rats; details: cited from earlier work
mouse islet graft model = details: cited from earlier work
[9] = tested on: mouse model for ischemia-reperfusion injury; details: cited from earlier work
[10] = tested on: mouse model for acute viral myocarditis; details: cited from earlier work
[11] = tested on: mouse model for systemic lupus erythematosus (SLE); details: cited from earlier work
[12] = tested on: mouse models for atherosclerosis; details: cited from earlier work
canine renal allograft = details: combination with cyclosporin A; cited from earlier work
[13] = tested on: mouse model for airway inflammation and induction of bronchial hyperresponsiveness; details: cited from earlier work
[14] = tested on: mouse models for inflammatory bowel disease including colitis; details: cited from earlier work
[15] = tested on: rat model for progressive mesangioproliferative glomerulonephritis; details: cited from earlier work
mouse model for asthma = details: cited from earlier work
[16] = tested on: rat model for autoimmune uveitis; details: cited from earlier work
[17] = tested on: rat models for rheumatoid arthritis; details: cited from earlier work
monkey renal allograft = details: combination with cyclosporin A; cited from earlier work
[18] = tested on: rat model for autoimmune myocarditis; details: cited from earlier work
[19] = tested on: rat model for brain inflammatory reaction following traumatic brain injury (TBI); details: cited from earlier work
[20] = tested on: mouse model for atopic dermatitis; details: cited from earlier work
[21] = monotherapy and combination with cyclosporin A, FK506 or RAD; cited from earlier work
rat skin allograft model = details: combination with cyclosporin A; cited from earlier work
[22] = tested on: dendritic cells infected with Francisella tularensis; details: reduces bacterial colonization of the node; cited from earlier work

For `CCCCCCCCc1ccc(CCC(N)(CO)CO)cc1` [FTY720, fingolimod], the therapeutic efficacy [1] is given as “therapeutic efficacy”, the therapeutic efficacy [2] is given as “therapeutic efficacy” and the prolonging allograft survival [3] is given as “act synergistically”. For the same molecule, the therapeutic efficacy [4] was “therapeutic efficacy”, the anti-viral activity [5] was “anti-viral activity” and the “therapeutic efficacy in EAE” value [6] was “therapeutic efficacy”. For the same molecule, the prolonging allograft survival ([7]; combination with FK506) was “act synergistically”, the prolonging allograft survival ([7]; combination with cyclosporin A) was “act synergistically” and the prolonging allograft survival ([7]; monotherapy) was “therapeutic efficacy for prolonging allograft survival”. For the same molecule, the “therapeutic efficacy in EAE” value [8] was “therapeutic efficacy”, the therapeutic efficacy (mouse islet graft model) was “therapeutic efficacy” and the therapeutic efficacy [9] was “therapeutic efficacy”. For the same molecule, the therapeutic efficacy [10] was “therapeutic efficacy”, the therapeutic efficacy [11] was “therapeutic efficacy” and the therapeutic efficacy [12] was “therapeutic efficacy”. For the same molecule, the prolonging allograft survival (canine renal allograft) was “act synergistically”, the therapeutic efficacy [13] was “therapeutic efficacy” and the therapeutic efficacy [14] was “therapeutic efficacy”. The therapeutic efficacy [15] was “therapeutic efficacy”, the therapeutic efficacy (mouse model for asthma) was “therapeutic efficacy” and the therapeutic efficacy [16] was “therapeutic efficacy”. For the same molecule, the therapeutic efficacy [17] was “therapeutic efficacy”, the prolonging allograft survival (monkey renal allograft) was “act synergistically” and the therapeutic efficacy [18] was “therapeutic efficacy”. For the same molecule, the therapeutic efficacy [19] was “therapeutic efficacy”, the therapeutic efficacy [20] was “therapeutic efficacy” and the “therapeutic efficacy in transplant rejection” value [21] was “therapeutic efficacy in transplant rejection both as a monotherapy and in synergistic combination with a classical immunosuppressant”. The prolonging allograft survival (rat skin allograft model) was “act synergistically” and the “migration of infected dendritic cells to the mediastinal lymph node” value [22] was “impair migration of dendritic cells infected with Francisella tularensis to the mediastinal lymph node”.
